Results as given in patent US11103562B2, “Composition comprising alkaline phosphatase for use in the treatment of arthritides” (AMRIF BV, priority 2017, dated 2021).

System: macrophages
Conditions: 4x AP, 60 min post tracer injection

B1: AP: human recombinant placenta alkaline phosphatase (hRESCAP; TNO, Zeist), an ectophosphatase (protein, UniProt P05187 23-506, looked up)
Alkaline phosphatase, …: IIPVEEENPDFWNREAAEALGAAKKLQPAQTAAKNLIIFLGDGMGVSTVTAARILKGQKKDKLGPEIPLAMDRFPYVALSKTYNVDKHVPDSGATATAYLCGVKGNFQTIGLSAAARFNQCNTTRGNEVISVMNRAKKAGKSVGVVTTTRVQHASPAGTYAHTVNRNWYSDADVPASARQEGCQDIATQLISNMDIDVILGGGRKYMFRMGTPDPEYPDDYSQGGTRLDGKNLVQEWLAKRQGARYVWNRTELMQASLDPSVTHLMGLFEPGDMKYEIHRDSTLDPSLMEMTEAALRLLSRNPRGFFLFVEGGRIDHGHHESRAYRALTETIMFDDAIERAGQLTSEEDTLSLVTADHSHVFSFGGYPLRGSSIFGLAPGKARDRKAYTVLLYGNGPGYVLKDGARPDVTESESGSPEYRQQSAVPLDEETHAGEDVAVFARGPQAHLVHGVQEQTFIAHVMAFAACLEPYTACDLAPPAGTTD
[^18F]fluoro-PEG-folate uptake, Blood, Avg: 0.007 % ID/g
[^18F]fluoro-PEG-folate uptake, Plasma, Avg (arthritic rats, n = 4): 0.010 % ID/g
